Source: patent US20050037394

Legend:
VEGF = assay: filter binding; conditions: purified recombinant protein, letters built from the parent sequence and the stated change
IgE (Homo sapiens) = assay: filter binding; conditions: 2'-OMe C,U; 2'-OH A,G (cDNA printed, T=U); dominant clone; three other clones bound to a higher extent; purified native protein

## CGAUAUGCAGUUUGAGAAGUCGCGCAUUCG [ARC225]
VEGF; 2'-OMe except 2'-OH at positions 7,10,14,16,19,22,24, 3'-inverted dT [2'-OMe at all except 2'-OH at 7,10,14,16,19,22,24, 3'-inverted dT after nt 30 (not written in sequence)], weaker than fully 2'-OMe ARC224, dot-blot in PBS, variant of ARC224
  binding result: binds more weakly

## GAUCAUGCAUGUGGAUCGCGGAUC [ARC226]
VEGF; 2'-OMe except single 2'-OH G, 3'-inverted dT [2'-OMe at all except 2'-OH G at 11, 3'-inverted dT after nt 24 (not written in sequence)], VEGF aptamer motif common to all 2'-OMe selections
  binding result: binds

## GGGAGAGGAGAGAACGUUCUACGAUCUGGGCGAGCCAGUCUGACUGAGGAAGCGCUGUCGAUCGAUCGAUCGAUGAAGGGCG [AMX(123).A1]
IgE (Homo sapiens)
  binding result: binds

For part of these data: The comparison behind a weaker result is the experiment's own reference, which may not be listed here. The exact form of at least one protein or probe is not confirmed.
